From PubChem BioAssay AID445 (National Center for Advancing Translational Sciences (NCATS), 2006) come the findings set out here.

The list shows a part of the results. These are further read-outs of the screen, such as a control signal, another cell line or another target. No call is given for them. Most of these compounds were active or inconclusive in the main read-out, so they are no random draw. The note in brackets gives the kind of curve behind each potency; many fits are weak.

This assay in a line: IkB Signaling. The following applies: ABC-DLBCL IkBa-CBG/CBR dual luciferase ratio (green luciferase fused to IkBa over red control in OCI-Ly3 lymphoma cells), 4 h. Summed up: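 Curves were fitted separately to fusion (green), unfused (red) and ratio luminescence, then classed by r2, magnitude and activity. Cells: OCI-Ly3, 4 h compound plus doxycycline at 37C; 10 uM MG-132 defined full response.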
Where [1] appears, read: measured here: control luc red channel unless noted.
The mark [2] stands for this setting: measured here: IkB-luc green channel.
Where [3] appears, read: measured here: control luc red channel.

As to `Cc1ccc2cccc(NC(=O)c3ccc(-c4ccc(Cl)cc4Cl)o3)c2n1`, the concentration at half-maximal activity (AC50) under setting [1] was 3.16 µM [rising, single point].

As for `Cc1ccc(S(=O)(=O)N(CC(=O)NCc2ccco2)Cc2ccc(F)cc2)cc1`, the AC50 under setting [1] was 10 µM [falling, partial curve].

With `COc1ccccc1/C=C(\C#N)c1nc(-c2cc3ccccc3oc2=O)cs1`, under setting [1], the AC50 was 15.8 µM [falling, partial curve].

As for `CCC(=O)Nc1ccc(S(=O)(=O)NCc2cccn2Cc2cccc(C)c2)cc1`, under setting [1], the AC50 is 31.6 µM [falling, single point].

In the case of `CCc1ccccc1NC(=O)CSc1ncc2c(n1)-c1ccccc1N(C)S2(=O)=O`, the AC50 was 31.6 µM [rising, partial curve] under setting [2] and 25.1 µM [rising, partial curve] under setting [3].

In the case of `O=C(NCCC1=CCCCC1)c1ccc2c(c1)ncn2-c1cccc(Cl)c1`, the AC50 under setting [1] was 0.0316 µM [rising, full curve, poor fit].

With `COc1cc(-c2nc3cnccn3c2Nc2ccccc2)ccc1O`, the AC50 is, setting by setting: under setting [2], 31.6 µM [falling, single point]; under setting [3], 12.6 µM [falling, partial curve].

On to `Cc1ccc(C)c(N2CCN(CCCNc3ncnc4onc(-c5ccc(Cl)cc5)c34)CC2)c1`, for which the AC50 under setting [1] was 25.1 µM [falling, single point].

`Cc1ccc(NC(=O)[C@H](CSCc2ccccc2)N2Cc3ccccc3C2=O)cc1`: under setting [1], the AC50 was 3.98 µM [rising, partial curve].

As for `COc1ccccc1N1CCN(C(=O)CCNS(=O)(=O)c2ccc3c(c2)CCC(=O)N3)CC1`, under setting [1], the concentration at half-maximal activity (AC50) is 15.8 µM [falling, partial curve].

As for `Cc1ccc(C(=O)N2c3nc(-c4ccco4)nn3C3(CCCCC3)[C@@H]3CCCC[C@@H]32)cc1`, under setting [1], the AC50 is 7.94 µM [falling, partial curve].

On to `CC1CCN(S(=O)(=O)c2cccc(C(=O)NC3CCS(=O)(=O)C3)c2)CC1` (stereo not given), for which the AC50 under setting [1] was 0.2 µM [falling, single point].

For `COc1ccc(C)cc1NC(=O)CSc1nnc(COc2ccc(C)cc2)n1Cc1ccco1`, under setting [1], the AC50 is 12.6 µM [falling, partial curve].

As for `CCCCN(C)CCNC(=O)c1cc(-c2ccc(Cl)s2)nc2ccccc12`, the AC50 under setting [1] was 15.8 µM [falling, partial curve].

On to `COc1ccc(-c2cccc(NS(=O)(=O)c3ccc(NC(C)=O)cc3)c2)nn1`, for which the concentration at half-maximal activity (AC50) under setting [1] is 7.94 µM [falling, partial curve].

Take `O=C(O)CCN1C(=S)CSC1=S`: under setting [1], the AC50 is 2.51 µM [falling, partial curve].

As to `O=C(NCc1ccco1)c1cc(S(=O)(=O)N2CCOCC2)c(Cl)cc1Cl`, the AC50 under setting [1] was 5.01 µM [rising, partial curve] [measured here: IkB-luc green channel].

As for `Cc1ccc(-c2nc3scc(CCNS(=O)(=O)c4ccc(Oc5ccccc5)cc4)n3n2)cc1`, the AC50 under setting [1] is 5.01 µM [rising, partial curve].

With `CCOC(=O)c1c(-c2ccccc2)csc1NC(=O)c1nc(SCC)ncc1Cl`, the AC50 under setting [1] is 1.26 µM [falling, partial curve].

With `CC(=O)Nc1ccc(NC(=O)c2ncoc2-c2ccco2)cc1`, the AC50 under setting [1] is 20 µM [falling, single point].

For the molecule `Cc1ccc2nc(CSc3nnc(NC(=O)c4ccc(C(C)(C)C)cc4)s3)cc(=O)n2c1`, the AC50 under setting [1] is 6.31 µM [rising, single point].

With `Cc1cccc(CC(=O)N2CC(=O)Nc3ccc(F)cc3C2c2ccccc2)c1` (stereo not given), the AC50 under setting [1] was 20 µM [falling, partial curve].

For `NC(N)=NC(N)=Nc1cccc(Cl)c1`, the half-maximal activity concentration (AC50) under setting [1] was 39.8 µM [falling, partial curve].

Consider `Cc1ccc(CNC(=O)CSc2c(C(C)C)cnc3c2c(=O)n(C)c(=O)n3C)cc1`, for which the half-maximal activity concentration (AC50) under setting [1] is 31.6 µM [falling, single point].

Take `CCc1ccccc1NC(=O)Nc1ccc2snnc2c1`: the AC50 under setting [1] was 31.6 µM [falling, partial curve].

Consider `CCC(CC)C(=O)N1CCc2cc(OC)c(OC)cc2C1COc1ccc(F)cc1` (stereo not given), for which the AC50 under setting [1] is 31.6 µM [falling, single point].

As to `Cc1cccc(-n2ncc(C(=O)NCc3ccc4c(c3)OCO4)c2C2CCN(C(=O)OC(C)(C)C)CC2)c1`, under setting [1], the concentration at half-maximal activity (AC50) was 15.8 µM [falling, partial curve].

On to `Cc1cccc(-c2noc(CN(C(=O)c3c(-c4ccccc4Cl)noc3C)C(C)C)n2)c1`, for which the AC50 under setting [1] was 10 µM [falling, partial curve].

With `O=C(CSc1nc(Nc2ccc(F)c(F)c2)c2ccccc2n1)c1ccc(Cl)cc1`, the AC50 under setting [1] was 25.1 µM [falling, partial curve, poor fit].

Turning to `CC1=C(C(=O)Nc2ccccc2)C(c2ccc(O)cc2)n2nc(-c3ccc(Cl)cc3)nc2N1` (stereo not given), the AC50 under setting [1] was 15.8 µM [falling, partial curve].

Turning to `Cc1oc2ccc(O)c(CN3CCC(C)CC3)c2c1C(=O)Nc1ccccc1`, the AC50 under setting [1] is 15.8 µM [falling, partial curve, poor fit].

`CCn1c(CN2CCCCC2)nc2cc(NC(=O)COc3ccc(C(C)(C)C)cc3)ccc21`: the AC50 under setting [1] is 12.6 µM [falling, partial curve].

For `Cc1cccc(N2CCN(C(=O)c3ccc(NS(=O)(=O)c4c(C)noc4C)cc3)CC2)c1C`, the half-maximal activity concentration (AC50) under setting [1] is 15.8 µM [falling, partial curve].

As to `CCCN1C(=O)C(Cc2nc3ccccc3c(=O)n2CC)c2cc(Br)ccc21` (stereo not given), the AC50 under setting [1] was 39.8 µM [falling, single point].

In the case of `Cc1ccc(CN2C(=O)C3(c4ccccc42)N(c2ccc(C)c(Cl)c2)C(=O)CS3(=O)=O)cc1` (stereo not given), the AC50 under setting [1] was 0.0398 µM [falling, full curve].

For `O=C(CCC1N=C2c3ccccc3N=C(SCc3cccc(Cl)c3)N2C1=O)NCCc1ccccc1` (stereo not given), under setting [1], the AC50 is 25.1 µM [falling, partial curve].

In the case of `CCOC(=O)CSc1cccc2cccnc12`, under setting [1], the AC50 is 5.01 µM [rising, full curve] [measured here: IkB-luc green channel].

For the molecule `COc1ccc(Br)cc1CNC(=O)CSc1n[nH]c(-c2ccccc2)n1`, under setting [1], the AC50 is 31.6 µM [falling, single point].

By AC50 is commonly meant the concentration giving half of the maximal activity seen.
